Paper PMC8484663

T1: MdPR10-2-BK (apple (Malus x domestica cv. Hanfu)) (UniProt Q40280)
T1 sequence: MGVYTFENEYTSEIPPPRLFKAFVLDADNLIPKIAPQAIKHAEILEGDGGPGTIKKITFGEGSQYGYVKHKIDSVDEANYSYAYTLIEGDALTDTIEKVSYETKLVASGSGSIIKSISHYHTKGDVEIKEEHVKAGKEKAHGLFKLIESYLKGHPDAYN

T2: MdPR10-2-YFPn (apple (Malus x domestica cv. Hanfu)) (UniProt Q40280)
T2 sequence: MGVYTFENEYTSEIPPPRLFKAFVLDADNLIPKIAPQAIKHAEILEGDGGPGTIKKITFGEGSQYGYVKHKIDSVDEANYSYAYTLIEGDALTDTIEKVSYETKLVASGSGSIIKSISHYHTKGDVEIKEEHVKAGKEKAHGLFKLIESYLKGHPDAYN


Legend:
[1] = molecular target: T1, MdPR10-2-BK (apple (Malus x domestica cv. Hanfu)); assay: two-hybrid; yeast strain AH109, pGADT7 and pGBKT7 fusions cotransformed; growth on synthetic dropout medium, X-α-gal staining, β-galactosidase activity; 30 °C
[2] = molecular target: T2, MdPR10-2-YFPn (apple (Malus x domestica cv. Hanfu)); assay: split reporter; BiFC with YFPn and YFPc fusions, transiently expressed in N. benthamiana epidermal cells by Agrobacterium tumefaciens; confocal microscopy
[3] = molecular target: MdRNL6-3-YFPn (apple (Malus x domestica)); assay: as above
[4] = molecular target: MdRNL6-YFPn (apple (Malus x domestica)); assay: as above
[5] = molecular target: MdRNL6-3-BK (apple (Malus x domestica)); assay: two-hybrid; yeast strain AH109, pGADT7 and pGBKT7 fusions cotransformed; growth on synthetic dropout medium, X-α-gal staining, β-galactosidase activity; 30 °C
[6] = molecular target: MdRNL6-BK (apple (Malus x domestica)); assay: as above

Molecule | binding [1] | binding [2] | further results
MdRNL2-3-AD (apple (Malus x domestica)) (domain or fragment) | binds |  | 
MdRNL2-3-YFPc (apple (Malus x domestica)) (domain or fragment) |  | binds | 
MdRNL2-YFPc (apple (Malus x domestica)) |  | binds | 
MdRNL2-AD (apple (Malus x domestica)) | binds |  | 
MdPR10-2-YFPc (protein, UniProt Q40280 1-159) MGVYTFENEYTSEIPPPRLFKAFVLDADNLIPKIAPQAIKHAEILEGDGGPGTIKKITFGEGSQYGYVKHKIDSVDEANYSYAYTLIEGDALTDTIEKVSYETKLVASGSGSIIKSISHYHTKGDVEIKEEHVKAGKEKAHGLFKLIESYLKGHPDAYN |  |  | binding [3]: binds; binding [4]: binds
MdPR10-2-AD (protein, UniProt Q40280 1-159) MGVYTFENEYTSEIPPPRLFKAFVLDADNLIPKIAPQAIKHAEILEGDGGPGTIKKITFGEGSQYGYVKHKIDSVDEANYSYAYTLIEGDALTDTIEKVSYETKLVASGSGSIIKSISHYHTKGDVEIKEEHVKAGKEKAHGLFKLIESYLKGHPDAYN |  |  | binding [5]: binds; binding [6]: binds

These are yes or no findings as the source states them, for the method shown. Binding calls can cover weak binding; strength is not graded here. For some assays here: Sequences can lack the tags named with a protein. For some assays here: Binding seen in cells or lysates may run through a third protein.
